Test results: paper PMC11066007, “CORVET-specific subunit levels determine the balance between HOPS/CORVET endosomal tethering complexes” (Scientific Reports, 2024)
These are yes or no findings as the source states them, for the method shown. For part of these data: In cells and extracts the contact can be indirect. Some results given as binding are weak or reduced against the parent protein; the word gives no strength. Sequences can lack the tags named with a protein.

B1: VPS18FL (yeast two-hybrid fusion) (protein, UniProt Q9P253 1-973)
chain: MASILDEYENSLSRSAVLQPGCPSVGIPHSGYVNAQLEKEVPIFTKQRIDFTPSERITSLVVSSNQLCMSLGKDTLLRIDLGKANEPNHVELGRKDDAKVHKMFLDHTGSHLLIALSSTEVLYVNRNGQKVRPLARWKGQLVESVGWNKALGTESSTGPILVGTAQGHIFEAELSASEGGLFGPAPDLYFRPLYVLNEEGGPAPVCSLEAERGPDGRSFVIATTRQRLFQFIGRAAEGAEAQGFSGLFAAYTDHPPPFREFPSNLGYSELAFYTPKLRSAPRAFAWMMGDGVLYGALDCGRPDSLLSEERVWEYPEGVGPGASPPLAIVLTQFHFLLLLADRVEAVCTLTGQVVLRDHFLEKFGPLKHMVKDSSTGQLWAYTERAVFRYHVQREARDVWRTYLDMNRFDLAKEYCRERPDCLDTVLAREADFCFRQRRYLESARCYALTQSYFEEIALKFLEARQEEALAEFLQRKLASLKPAERTQATLLTTWLTELYLSRLGALQGDPEALTLYRETKECFRTFLSSPRHKEWLFASRASIHELLASHGDTEHMVYFAVIMQDYERVVAYHCQHEAYEEALAVLARHRDPQLFYKFSPILIRHIPRQLVDAWIEMGSRLDARQLIPALVNYSQGGEVQQVSQAIRYMEFCVNVLGETEQAIHNYLLSLYARGRPDSLLAYLEQAGASPHRVHYDLKYALRLCAEHGHHRACVHVYKVLELYEEAVDLALQVDVDLAKQCADLPEEDEELRKKLWLKIARHVVQEEEDVQTAMACLASCPLLKIEDVLPFFPDFVTIDHFKEAICSSLKAYNHHIQELQREMEEATASAQRIRRDLQELRGRYGTVEPQDKCATCDFPLLNRPFYLFLCGHMFHADCLLQAVRPGLPAYKQARLEELQRKLGAAPPPAKGSARAKEAEGGAATAGPSREQLKADLDELVAAECVYCGELMIRSIDRPFIDPQRYEEEQLSWL
B2: VPS41-HA (protein, UniProt P49754 1-854)
chain: MAEAEEQETGSLEESTDESEEEESEEEPKLKYERLSNGVTEILQKDAASCMTVHDKFLALGTHYGKVYLLDVQGNITQKFDVSPVKINQISLDESGEHMGVCSEDGKVQVFGLYSGEEFHETFDCPIKIIAVHPHFVRSSCKQFVTGGKKLLLFERSWMNRWKSAVLHEGEGNIRSVKWRGHLIAWANNMGVKIFDIISKQRITNVPRDDISLRPDMYPCSLCWKDNVTLIIGWGTSVKVCSVKERHASEMRDLPSRYVEIVSQFETEFYISGLAPLCDQLVVLSYVKEISEKTEREYCARPRLDIIQPLSETCEEISSDALTVRGFQENECRDYHLEYSEGESLFYIVSPRDVVVAKERDQDDHIDWLLEKKKYEEALMAAEISQKNIKRHKILDIGLAYINHLVERGDYDIAARKCQKILGKNAALWEYEVYKFKEIGQLKAISPYLPRGDPVLKPLIYEMILHEFLESDYEGFATLIREWPGDLYNNSVIVQAVRDHLKKDSQNKTLLKTLAELYTYDKNYGNALEIYLTLRHKDVFQLIHKHNLFSSIKDKIVLLMDFDSEKAVDMLLDNEDKISIKKVVEELEDRPELQHVYLHKLFKRDHHKGQRYHEKQISLYAEYDRPNLLPFLRDSTHCPLEKALEICQQRNFVEETVYLLSRMGNSRSALKMIMEELHDVDKAIEFAKEQDDGELWEDLILYSIDKPPFITGLLNNIGTHVDPILLIHRIKEGMEIPNLRDSLVKILQDYNLQILLREGCKKILVADSLSLLKKMHRTQMKGVLVDEENICESCLSPILPSDAAKPFSVVVFHCRHMFHKECLPMPSMNSAAQFCNICSAKNRGPGSAILEMKK

Experiments:
[1] = biological target: T1, VPS41 (yeast two-hybrid fusion) (human) (UniProt P49754); test: two-hybrid; yeast AH109 co-transformed with pGADT7 and pGBKT7 constructs; selection on SD-WL, interaction read by growth on SD-WL without adenine or histidine; 48 h at 30 °C
T1 sequence: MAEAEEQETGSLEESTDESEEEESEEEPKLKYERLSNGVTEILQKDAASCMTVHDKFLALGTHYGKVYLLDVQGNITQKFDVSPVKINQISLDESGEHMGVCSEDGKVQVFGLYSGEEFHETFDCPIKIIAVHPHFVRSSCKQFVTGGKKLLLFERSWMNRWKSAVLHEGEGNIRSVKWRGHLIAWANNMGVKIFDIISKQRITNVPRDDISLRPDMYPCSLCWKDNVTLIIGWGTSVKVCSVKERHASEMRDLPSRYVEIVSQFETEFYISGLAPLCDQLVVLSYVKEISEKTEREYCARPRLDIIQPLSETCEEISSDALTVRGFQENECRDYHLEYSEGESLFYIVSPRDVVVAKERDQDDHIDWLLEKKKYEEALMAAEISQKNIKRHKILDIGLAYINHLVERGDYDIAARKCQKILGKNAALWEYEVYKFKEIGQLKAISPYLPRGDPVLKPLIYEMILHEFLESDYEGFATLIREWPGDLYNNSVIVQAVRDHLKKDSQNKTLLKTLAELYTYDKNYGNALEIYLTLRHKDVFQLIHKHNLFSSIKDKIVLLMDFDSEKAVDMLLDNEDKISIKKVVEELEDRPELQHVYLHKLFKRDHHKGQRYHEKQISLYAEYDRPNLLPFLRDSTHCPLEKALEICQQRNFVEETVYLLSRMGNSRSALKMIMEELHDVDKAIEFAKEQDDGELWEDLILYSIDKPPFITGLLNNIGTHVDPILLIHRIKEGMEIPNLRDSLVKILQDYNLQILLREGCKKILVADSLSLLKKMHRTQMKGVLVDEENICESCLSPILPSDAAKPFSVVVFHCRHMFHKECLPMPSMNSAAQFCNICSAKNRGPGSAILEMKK

[2] = biological target: T2, VPS8 (yeast two-hybrid fusion) (human) (UniProt Q8N3P4); test: as above
T2 sequence: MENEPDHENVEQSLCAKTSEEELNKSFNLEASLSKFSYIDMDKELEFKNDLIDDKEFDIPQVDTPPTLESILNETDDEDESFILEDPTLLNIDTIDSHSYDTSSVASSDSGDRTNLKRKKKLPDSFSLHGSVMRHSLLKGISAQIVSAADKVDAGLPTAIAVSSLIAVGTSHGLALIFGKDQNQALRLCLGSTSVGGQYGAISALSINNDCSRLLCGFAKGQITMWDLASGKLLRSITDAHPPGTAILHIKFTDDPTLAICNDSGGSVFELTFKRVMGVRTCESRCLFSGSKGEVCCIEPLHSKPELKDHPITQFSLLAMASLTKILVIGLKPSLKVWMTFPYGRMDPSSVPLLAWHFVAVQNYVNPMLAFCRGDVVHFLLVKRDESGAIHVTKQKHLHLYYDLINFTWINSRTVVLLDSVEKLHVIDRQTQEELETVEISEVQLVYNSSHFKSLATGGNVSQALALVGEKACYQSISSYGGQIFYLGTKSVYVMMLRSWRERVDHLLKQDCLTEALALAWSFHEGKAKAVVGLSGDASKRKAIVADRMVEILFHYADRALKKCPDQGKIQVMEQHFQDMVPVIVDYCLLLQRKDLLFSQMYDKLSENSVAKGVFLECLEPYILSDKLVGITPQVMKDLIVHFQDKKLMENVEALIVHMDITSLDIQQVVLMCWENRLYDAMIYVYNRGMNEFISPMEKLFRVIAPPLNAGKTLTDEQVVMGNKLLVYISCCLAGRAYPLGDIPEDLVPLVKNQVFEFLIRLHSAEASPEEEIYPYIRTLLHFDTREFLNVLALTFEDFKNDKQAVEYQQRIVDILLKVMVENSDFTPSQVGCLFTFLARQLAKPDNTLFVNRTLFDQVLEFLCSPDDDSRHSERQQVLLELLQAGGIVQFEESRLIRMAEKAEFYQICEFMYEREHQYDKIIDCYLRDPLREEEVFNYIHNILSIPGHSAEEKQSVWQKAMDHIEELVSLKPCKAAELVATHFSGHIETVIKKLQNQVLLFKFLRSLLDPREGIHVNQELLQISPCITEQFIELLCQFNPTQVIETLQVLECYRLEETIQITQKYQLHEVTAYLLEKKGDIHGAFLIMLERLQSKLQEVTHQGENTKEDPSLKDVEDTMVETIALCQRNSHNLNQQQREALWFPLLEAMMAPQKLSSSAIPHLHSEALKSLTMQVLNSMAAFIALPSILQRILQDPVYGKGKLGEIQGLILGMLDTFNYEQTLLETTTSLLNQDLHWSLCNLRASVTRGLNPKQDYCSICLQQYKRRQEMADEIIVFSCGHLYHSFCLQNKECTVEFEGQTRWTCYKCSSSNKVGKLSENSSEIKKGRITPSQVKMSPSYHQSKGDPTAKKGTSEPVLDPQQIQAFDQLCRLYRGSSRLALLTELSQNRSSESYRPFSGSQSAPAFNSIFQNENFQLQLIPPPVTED

[3] = biological target: T3, VPS39-FLAG (human, UniProt Q96JC1 1-886); test: co-IP; anti-FLAG beads on lysates of HEK293 cells overexpressing a FLAG-tagged subunit together with untagged VPS8 or VPS41-HA; eluates analysed by western blot; lysis buffer 50 mM TRIS-HCl pH 7.5, 150 mM NaCl, 1% Triton X-100, 5 mM EDTA; 1.5 h at 4 °C
T3 construct: VPS39, human, HOPS-specific subunit; DNA region encoding the full-length protein fused with a FLAG tag; also called HOPS-specific VPS39; not shown: FLAG, N-terminal, kept
T3 sequence (looked up): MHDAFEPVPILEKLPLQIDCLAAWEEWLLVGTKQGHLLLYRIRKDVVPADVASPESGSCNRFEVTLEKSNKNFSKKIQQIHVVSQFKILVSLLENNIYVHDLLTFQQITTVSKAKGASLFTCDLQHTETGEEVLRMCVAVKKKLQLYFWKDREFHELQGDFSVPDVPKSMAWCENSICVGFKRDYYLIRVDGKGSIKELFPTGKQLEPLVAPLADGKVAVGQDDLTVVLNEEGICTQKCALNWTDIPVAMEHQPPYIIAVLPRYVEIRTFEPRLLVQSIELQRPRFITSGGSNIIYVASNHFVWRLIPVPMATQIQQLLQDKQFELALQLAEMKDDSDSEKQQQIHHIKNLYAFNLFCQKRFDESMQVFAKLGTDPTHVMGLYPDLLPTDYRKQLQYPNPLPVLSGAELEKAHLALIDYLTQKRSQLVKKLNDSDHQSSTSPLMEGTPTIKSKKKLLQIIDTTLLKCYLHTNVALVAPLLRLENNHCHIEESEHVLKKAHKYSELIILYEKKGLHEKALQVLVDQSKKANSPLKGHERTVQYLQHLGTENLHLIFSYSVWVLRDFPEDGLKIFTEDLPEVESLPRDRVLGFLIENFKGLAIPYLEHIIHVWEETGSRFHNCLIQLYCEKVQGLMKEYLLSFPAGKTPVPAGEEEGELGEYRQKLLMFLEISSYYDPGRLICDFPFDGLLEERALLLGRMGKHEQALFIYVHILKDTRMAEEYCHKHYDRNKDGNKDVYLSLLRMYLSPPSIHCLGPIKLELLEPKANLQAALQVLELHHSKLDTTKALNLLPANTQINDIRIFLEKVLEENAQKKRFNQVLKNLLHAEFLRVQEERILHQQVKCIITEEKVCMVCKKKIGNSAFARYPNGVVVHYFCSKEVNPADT

Binder	binding [1]	binding [2]	binding [3]
B1	binds	binds	
B2			binds
